Results are given in words; binding and its absence hold for the method and conditions named. Binding seen in cells or lysates may run through a third protein.
Target: Dynein intermediate chain (endogenous, mouse brain) (mouse (endogenous in brain))
Assay: co-IP

B1: GM130 (endogenous, mouse brain) (protein, UniProt Q921M4 1-999)
chain: MWPPRFPPPRPGMSEETRQSKLAAAKKKLREYQQKNSPGVPAGAKKKKKIKNGHSPERPTASDCQSPENVPTDHIAPAPPTAATDTMFLGVTPSPDADLTQSHDAGNCSNLMEETKTFSSTESLRQLSQQLNGLVSESTSYINGEGLTSSNMKELENRYQELAVALDSSYVTNKQLSSTIEELKQQNQDTLDQLEKEKKDYQQKLAKEQGSLREQLQVHIQTIGILVSEKAELQTALAHTQQAARQKAGESEDLASRLQSSRQRVGELERTLSTVSTQQKQADRYNKDLTKERDALKLELYKNSKSNEDLRQQNSELEEKLRVLVAEKAAAQLGVEELQKKLEMSELLLQQFSSQSSAAGGNEQLQHAMEERAQLETHVSQLMESLKQLQVERDQYAENLKGESAMWQQRVQQMAEQVHTLKEEKEHRERQVQELETSLAALRSQMEEPPPPEPPAGPSEAEEQLQGEVEQLHKELERLTGQLRAQVQDNESLSHLNREQEGRLLELEREAQRWSEQAEERKQILESMQSDRTTISRALSQNRELKEQLAELQNGFVRLTNENMEITSALQSEQHVKKELARKLGELQERLGELKETVELKSQEAQGLQEQRDQCLSHLQQYAAAYQQHLAAYEQLTSEKEAIHKQLLLQTQLMDQLQHEEVQGKMAAELARQELQEAQERLKATSQENQQLQAQLSLLVLPGEGDVDQEEEDEEVPQSSLAIPEDLDSREAMVAFFNAAIARAEEEQARLRVQLKEQKARCRSLSHLAAPVQSKLEKEAVVPRNVDDSASEESNQALHVAMEKLQSRFLEVMQEKVELKERVEELEHCCIQLSGETDTIGEYIALYQNQRAVLKARHLEKEEYISRLAQDKEEMKVKLLELQELVLRLVNERNEWQGKFLAVSQNPGDVLTPVPTGSQEFGAADQQDDLREVSLADDIEPAQGEAGVPAPHENPTAQQIMQLLREIQNPRERPGLGSNPCIPFFYRADENDEVKIMVV
B1 was tested. Which binding did it give?
The binding was “no binding”.
